Source: doi:10.1101/2021.01.14.426755 (bioRxiv, 2021)
These are yes or no findings as the source states them, for the method shown. Some entries that bind do so weakly or less than the wild type. Sequences can lack the tags named with a protein.

Target: T1, Ssl2 (Saccharomyces cerevisiae (endogenous, purified from yeast)) (UniProt Q00578)
T1 sequence: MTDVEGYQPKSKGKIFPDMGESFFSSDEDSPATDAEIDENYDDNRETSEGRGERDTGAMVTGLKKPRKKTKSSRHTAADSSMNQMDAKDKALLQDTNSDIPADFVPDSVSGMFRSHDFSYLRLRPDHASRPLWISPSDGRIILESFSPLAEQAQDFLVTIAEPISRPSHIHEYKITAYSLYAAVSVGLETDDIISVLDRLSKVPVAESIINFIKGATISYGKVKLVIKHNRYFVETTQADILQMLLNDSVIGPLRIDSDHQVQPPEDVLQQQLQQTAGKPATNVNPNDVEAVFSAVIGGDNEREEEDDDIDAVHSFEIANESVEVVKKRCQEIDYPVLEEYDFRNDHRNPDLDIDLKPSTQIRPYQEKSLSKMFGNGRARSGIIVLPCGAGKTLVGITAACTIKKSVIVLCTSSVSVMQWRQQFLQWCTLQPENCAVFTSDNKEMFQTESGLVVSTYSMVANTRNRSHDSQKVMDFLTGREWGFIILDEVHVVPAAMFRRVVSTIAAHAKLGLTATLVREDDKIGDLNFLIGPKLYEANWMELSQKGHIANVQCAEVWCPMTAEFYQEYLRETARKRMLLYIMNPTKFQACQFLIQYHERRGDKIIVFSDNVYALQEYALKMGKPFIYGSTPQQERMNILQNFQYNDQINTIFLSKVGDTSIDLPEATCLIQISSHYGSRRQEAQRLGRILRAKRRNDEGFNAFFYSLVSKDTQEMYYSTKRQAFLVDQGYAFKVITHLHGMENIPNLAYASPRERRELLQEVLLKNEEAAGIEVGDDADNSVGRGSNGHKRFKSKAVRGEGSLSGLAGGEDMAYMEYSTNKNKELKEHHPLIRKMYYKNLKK
Test: cryo-EM structure

B1: Tfb5 (natural protein)
chain: MARARKGALVQCDPSIKALILQIDAKMSDIVLEELDDTHLLVNPSKVEFVKHELNRLLSKNIYNPMDEEENQ
binding: binds weakly
